This passage reports IC50 results from patent publication US7105679B2, “Heteroatom containing tetracyclic derivatives as selective estrogen receptor modulators” (priority 2001, dated 2006).

Chains of the proteins cited; added tags and fusions are not shown.
UniProt P03372, whole entry: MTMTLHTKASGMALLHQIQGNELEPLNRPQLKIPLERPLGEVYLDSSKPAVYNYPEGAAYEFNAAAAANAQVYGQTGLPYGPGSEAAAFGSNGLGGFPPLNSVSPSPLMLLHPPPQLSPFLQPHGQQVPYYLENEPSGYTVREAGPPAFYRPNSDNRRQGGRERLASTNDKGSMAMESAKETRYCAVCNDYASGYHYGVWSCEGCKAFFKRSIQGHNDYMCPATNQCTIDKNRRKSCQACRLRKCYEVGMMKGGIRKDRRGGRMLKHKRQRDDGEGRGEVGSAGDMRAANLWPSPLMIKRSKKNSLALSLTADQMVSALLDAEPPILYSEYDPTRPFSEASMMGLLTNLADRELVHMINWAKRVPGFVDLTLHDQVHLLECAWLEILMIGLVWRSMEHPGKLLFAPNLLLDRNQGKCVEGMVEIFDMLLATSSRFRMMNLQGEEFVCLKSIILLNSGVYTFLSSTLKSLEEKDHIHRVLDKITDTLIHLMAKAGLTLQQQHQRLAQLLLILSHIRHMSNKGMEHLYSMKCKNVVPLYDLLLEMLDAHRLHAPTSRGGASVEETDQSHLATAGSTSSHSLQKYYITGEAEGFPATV

Structures are written as SMILES. The source holds more than one record for some entries. This is not the full list of results. An entry can have further records. The records of an entry do not match, cause unknown; some may be repeats, others may stem from another dose, organism or construct than stated.

This assay concerns the target human estrogen receptor α (Homo sapiens, UniProt P03372). In words: Estrogen Receptor α Flash Plate Assay (binding of radiolabeled estrogen). Conditions: read-out: Estrogen Receptor α in μM (No.), 0.5 nM radiolabeled estrogen, number in brackets = No. of determinations, NA = no detected activity at test concentration.

Take `Oc1ccc2c(c1)OC(c1ccc(OCCN3CCCCC3)cc1)C1=C2COc2cc(O)ccc21` (single isomer, unassigned): the IC50 was 17 nM and 6.4 nM.
